Experimental data taken from publication doi:10.1101/2024.05.08.592561 (bioRxiv, 2024).
No constants are given. Whether binding was seen depends on the method and setting. For some of these results: A result given as binding can be weak or reduced; the word gives no strength. Tags and fused reporters may be left off the sequences shown.

Legend:
[1] = molecular target: T1, biotinylated ParT-His6 (wild type) (Streptomyces coelicolor) (UniProt Q8VWE5); test: condition: only with 1 mM ATP but without non-specific DNA
T1 sequence (chain, biotin (NHS-PEG4-Biotin; sites not stated)): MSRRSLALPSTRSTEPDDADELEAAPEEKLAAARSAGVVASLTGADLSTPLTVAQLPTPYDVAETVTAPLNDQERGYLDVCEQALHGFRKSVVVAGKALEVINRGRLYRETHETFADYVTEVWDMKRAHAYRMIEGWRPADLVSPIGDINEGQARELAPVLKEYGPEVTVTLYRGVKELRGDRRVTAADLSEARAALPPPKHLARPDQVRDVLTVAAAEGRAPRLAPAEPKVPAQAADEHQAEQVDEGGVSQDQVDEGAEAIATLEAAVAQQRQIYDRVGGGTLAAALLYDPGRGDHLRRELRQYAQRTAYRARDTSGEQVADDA

[2] = molecular target: T1, biotinylated ParT-His6 (wild type) (Streptomyces coelicolor); test: condition: only with 0.05 mg/mL non-specific DNA but without ATP
[3] = molecular target: T1, biotinylated ParT-His6 (wild type) (Streptomyces coelicolor); test: condition: only ParA alone, without ATP and non-specific DNA
[4] = molecular target: T1, biotinylated ParT-His6 (wild type) (Streptomyces coelicolor); test: BLI

In the case of “ParA-His6 (SCP2 ParA) (Streptomyces coelicolor) (enzyme)”, the binding [1] is reported as “no binding”, the binding [2] is reported as “no binding” and the binding [3] is reported as “no binding”. The binding [4] was “binds”.
